Reference: US10308960B2, “Methods for treating cells containing fusion genes” (University of Pittsburgh—of the Commonwealth System of …, priority 2014, dated 2019)
For at least one compound, name, drawing or mass did not settle the structure.

Tests used:
NIH3T3 cells = experiment: Ebselen cell growth inhibition, NIH3T3; format: cell-based; settings: NIH3T3 cells that expressed little AMACR
Description: (§1) FIG. 26. […] Untransformed RWPE1, NIH3T3 cells and SLC45A2-AMACR transformed PC3 cells treated with (PC3/SLAM tet+) or without tetracycline (PC3/SLAM tet−) were applied with indicated concentration of Ebselen. Cell growths relative to unapplied controls were examined.
(§2) Therapeutic targeting at SLC45A2-AMACR using racemase inhibitor. To investigate whether targeting SLC45A2-AMACR is a viable approach to treat prostate cancer, we chose 2 approaches: 1) To intercept SLC45A2-AMACR/SHIP2-Akt pathway with small molecules; and 2) to block the ectopic racemase activity of SLC45A2-AMACR with ebselen or trifluoro-ibuprofen. […] This is probably due to Pten negative status of PC3 cells such that Akt pathway is fully activated regardless the presence of SLC45A2-AMACR. On the other hand, when we applied ebselen, the potent inhibitor of racemase of AMACR, to SLC45A2-AMACR expressing PC3 cells, 5 fold higher sensitivity of cell growth inhibition was found for PC3 cells transformed with pCDNA4-SLC45A2-AMACR-FLAG/pCDNA6 over the controls.

RWPE1 cells = experiment: Ebselen cell growth inhibition, RWPE1; format: cell-based; settings: non-transformed RWPE1 cells
Description: as §1, §2

`O=c1c2ccccc2[se]n1-c1ccccc1` [Ebselen, ebselen] was tested, and the “sensitivity to ebselen killing” value (NIH3T3 cells) was “largely insensitive” and the “sensitivity to ebselen killing” value (RWPE1 cells) was “largely insensitive”.
